Assay results as given in paper PMC10603155.
These are yes or no findings as the source states them, for the method shown. In cells and extracts the contact can be indirect.

Target: EGFP fused with HVD of nsP3 of ONNV-ΔFHL1 (o'nyong-nyong virus)
Assay: pull-down

B1: Four-and-a-half LIM domain protein 1 (protein, UniProt Q13642 1-323)
chain: MAEKFDCHYCRDPLQGKKYVQKDGHHCCLKCFDKFCANTCVECRKPIGADSKEVHYKNRFWHDTCFRCAKCLHPLANETFVAKDNKILCNKCTTREDSPKCKGCFKAIVAGDQNVEYKGTVWHKDCFTCSNCKQVIGTGSFFPKGEDFYCVTCHETKFAKHCVKCNKAITSGGITYQDQPWHADCFVCVTCSKKLAGQRFTAVEDQYYCVDCYKNFVAKKCAGCKNPITGKRTVSRVSHPVSKARKPPVCHGKRLPLTLFPSANLRGRHPGGERTCPSWVVVLYRKNRSLAAPRGPGLVKAPVWWPMKDNPGTTTASTAKNAP
  binding: no binding
